The values below come from the supplement of paper PMC10849652.

By UniProt entry, the sequences of proteins in these tests, tags left out. Where a name states a change or a piece, a line headed by the entry shows the natural chain unless it says otherwise.
UniProt Q9NT62, whole entry, looked up: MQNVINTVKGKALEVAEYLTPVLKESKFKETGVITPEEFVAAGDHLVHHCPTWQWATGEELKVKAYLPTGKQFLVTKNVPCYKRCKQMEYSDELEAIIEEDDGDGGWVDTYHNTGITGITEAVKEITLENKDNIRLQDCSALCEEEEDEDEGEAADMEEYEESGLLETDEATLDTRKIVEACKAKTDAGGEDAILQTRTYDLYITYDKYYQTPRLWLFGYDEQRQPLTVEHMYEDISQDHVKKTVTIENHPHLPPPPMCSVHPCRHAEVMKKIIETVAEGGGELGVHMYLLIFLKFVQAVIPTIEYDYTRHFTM
UniProt Q15041, whole entry, looked up: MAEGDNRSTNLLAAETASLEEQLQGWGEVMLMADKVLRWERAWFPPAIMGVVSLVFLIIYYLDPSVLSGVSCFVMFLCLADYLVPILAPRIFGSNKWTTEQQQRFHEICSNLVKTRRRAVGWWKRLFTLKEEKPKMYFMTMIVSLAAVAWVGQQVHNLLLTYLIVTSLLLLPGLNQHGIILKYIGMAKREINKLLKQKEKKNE
UniProt P56134: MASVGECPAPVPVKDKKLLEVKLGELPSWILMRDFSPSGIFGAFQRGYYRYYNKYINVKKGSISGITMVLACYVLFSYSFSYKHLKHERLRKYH
UniProt P25705: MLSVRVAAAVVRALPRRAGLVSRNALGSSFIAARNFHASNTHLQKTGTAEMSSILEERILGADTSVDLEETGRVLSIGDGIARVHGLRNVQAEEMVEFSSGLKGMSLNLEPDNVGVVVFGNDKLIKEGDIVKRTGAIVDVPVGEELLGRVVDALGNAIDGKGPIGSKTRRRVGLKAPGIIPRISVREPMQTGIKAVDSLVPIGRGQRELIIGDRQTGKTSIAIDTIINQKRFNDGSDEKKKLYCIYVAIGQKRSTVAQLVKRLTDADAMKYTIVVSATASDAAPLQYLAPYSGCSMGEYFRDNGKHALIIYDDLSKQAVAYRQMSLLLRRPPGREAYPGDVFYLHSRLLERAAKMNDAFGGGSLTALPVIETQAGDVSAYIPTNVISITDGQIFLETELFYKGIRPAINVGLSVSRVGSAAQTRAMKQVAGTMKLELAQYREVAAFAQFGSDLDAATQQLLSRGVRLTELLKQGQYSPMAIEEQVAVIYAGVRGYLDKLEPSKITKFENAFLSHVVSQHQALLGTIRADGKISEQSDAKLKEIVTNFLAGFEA
UniProt O95376: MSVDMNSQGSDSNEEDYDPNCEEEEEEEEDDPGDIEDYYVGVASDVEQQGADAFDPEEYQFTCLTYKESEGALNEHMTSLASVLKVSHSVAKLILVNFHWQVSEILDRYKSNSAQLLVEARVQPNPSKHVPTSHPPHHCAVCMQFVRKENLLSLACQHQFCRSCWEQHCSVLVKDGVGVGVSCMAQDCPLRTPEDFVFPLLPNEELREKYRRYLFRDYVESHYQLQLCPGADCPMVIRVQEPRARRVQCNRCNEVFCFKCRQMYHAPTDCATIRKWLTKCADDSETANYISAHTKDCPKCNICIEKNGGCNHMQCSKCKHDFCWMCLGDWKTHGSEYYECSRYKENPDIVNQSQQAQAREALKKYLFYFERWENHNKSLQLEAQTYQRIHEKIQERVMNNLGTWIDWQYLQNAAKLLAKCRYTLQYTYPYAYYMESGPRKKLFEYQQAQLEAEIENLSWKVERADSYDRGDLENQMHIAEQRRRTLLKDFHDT
UniProt Q92747, whole entry, looked up: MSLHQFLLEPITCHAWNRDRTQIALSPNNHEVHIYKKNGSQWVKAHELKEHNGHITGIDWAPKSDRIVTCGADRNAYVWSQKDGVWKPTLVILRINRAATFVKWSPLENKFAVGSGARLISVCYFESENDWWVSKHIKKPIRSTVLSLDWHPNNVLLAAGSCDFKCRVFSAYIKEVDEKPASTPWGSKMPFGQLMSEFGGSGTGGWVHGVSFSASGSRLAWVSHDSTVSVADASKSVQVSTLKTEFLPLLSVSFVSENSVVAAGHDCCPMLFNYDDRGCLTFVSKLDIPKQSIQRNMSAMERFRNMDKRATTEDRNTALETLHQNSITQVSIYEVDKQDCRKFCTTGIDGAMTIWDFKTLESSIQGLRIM
UniProt P56381: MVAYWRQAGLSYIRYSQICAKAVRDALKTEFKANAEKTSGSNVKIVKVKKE
UniProt Q12797: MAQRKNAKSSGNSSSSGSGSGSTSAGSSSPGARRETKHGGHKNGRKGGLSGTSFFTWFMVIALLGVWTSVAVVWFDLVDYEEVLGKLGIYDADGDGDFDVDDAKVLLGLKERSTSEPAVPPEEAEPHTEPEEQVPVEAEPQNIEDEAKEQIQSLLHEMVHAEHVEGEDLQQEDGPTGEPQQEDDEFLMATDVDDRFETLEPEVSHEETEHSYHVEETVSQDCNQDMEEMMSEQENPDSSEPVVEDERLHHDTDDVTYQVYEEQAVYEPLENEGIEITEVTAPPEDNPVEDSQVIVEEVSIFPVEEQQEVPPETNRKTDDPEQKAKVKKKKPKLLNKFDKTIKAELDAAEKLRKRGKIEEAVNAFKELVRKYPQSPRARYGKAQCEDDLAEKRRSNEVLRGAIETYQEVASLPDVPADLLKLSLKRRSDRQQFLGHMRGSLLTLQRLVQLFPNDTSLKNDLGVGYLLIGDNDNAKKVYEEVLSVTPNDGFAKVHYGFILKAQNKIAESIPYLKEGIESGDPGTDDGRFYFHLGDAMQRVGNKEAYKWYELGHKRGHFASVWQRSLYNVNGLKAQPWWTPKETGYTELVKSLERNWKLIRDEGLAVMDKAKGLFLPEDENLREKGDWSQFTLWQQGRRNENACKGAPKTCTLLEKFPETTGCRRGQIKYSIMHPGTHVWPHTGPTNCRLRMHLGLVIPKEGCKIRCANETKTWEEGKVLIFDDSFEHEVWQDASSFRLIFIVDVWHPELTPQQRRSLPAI
UniProt Q6DD88: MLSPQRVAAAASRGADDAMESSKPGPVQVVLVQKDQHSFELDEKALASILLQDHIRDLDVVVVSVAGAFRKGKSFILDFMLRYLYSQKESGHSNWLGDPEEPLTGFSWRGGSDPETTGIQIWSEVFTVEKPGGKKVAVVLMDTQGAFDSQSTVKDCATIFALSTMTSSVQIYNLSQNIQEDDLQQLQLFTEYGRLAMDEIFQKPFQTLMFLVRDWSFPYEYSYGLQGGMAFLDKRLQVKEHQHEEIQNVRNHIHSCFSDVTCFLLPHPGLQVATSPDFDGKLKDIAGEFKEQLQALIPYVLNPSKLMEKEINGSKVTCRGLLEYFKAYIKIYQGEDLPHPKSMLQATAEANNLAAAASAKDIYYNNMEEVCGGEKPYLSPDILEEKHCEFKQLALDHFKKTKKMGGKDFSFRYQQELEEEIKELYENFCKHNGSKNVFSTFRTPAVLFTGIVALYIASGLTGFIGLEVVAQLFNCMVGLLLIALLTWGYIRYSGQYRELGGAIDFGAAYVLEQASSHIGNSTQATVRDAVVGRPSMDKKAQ
UniProt Q06055: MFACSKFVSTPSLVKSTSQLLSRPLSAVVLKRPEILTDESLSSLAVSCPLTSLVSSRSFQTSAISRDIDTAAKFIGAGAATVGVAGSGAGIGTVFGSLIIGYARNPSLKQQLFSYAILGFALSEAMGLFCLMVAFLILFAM
UniProt P15336: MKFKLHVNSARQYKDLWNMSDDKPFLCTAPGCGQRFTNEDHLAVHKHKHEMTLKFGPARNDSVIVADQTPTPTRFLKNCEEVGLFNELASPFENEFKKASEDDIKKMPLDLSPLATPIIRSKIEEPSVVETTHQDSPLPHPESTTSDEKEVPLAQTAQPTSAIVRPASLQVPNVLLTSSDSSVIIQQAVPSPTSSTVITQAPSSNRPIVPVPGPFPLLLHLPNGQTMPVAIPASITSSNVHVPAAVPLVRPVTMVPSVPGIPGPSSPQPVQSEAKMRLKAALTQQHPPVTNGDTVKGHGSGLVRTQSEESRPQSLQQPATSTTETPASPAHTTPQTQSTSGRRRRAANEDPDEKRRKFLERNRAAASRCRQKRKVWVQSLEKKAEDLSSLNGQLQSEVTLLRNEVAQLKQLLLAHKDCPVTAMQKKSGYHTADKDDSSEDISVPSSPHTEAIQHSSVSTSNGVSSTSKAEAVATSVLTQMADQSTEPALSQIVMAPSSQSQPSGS
UniProt P61421, whole entry, looked up: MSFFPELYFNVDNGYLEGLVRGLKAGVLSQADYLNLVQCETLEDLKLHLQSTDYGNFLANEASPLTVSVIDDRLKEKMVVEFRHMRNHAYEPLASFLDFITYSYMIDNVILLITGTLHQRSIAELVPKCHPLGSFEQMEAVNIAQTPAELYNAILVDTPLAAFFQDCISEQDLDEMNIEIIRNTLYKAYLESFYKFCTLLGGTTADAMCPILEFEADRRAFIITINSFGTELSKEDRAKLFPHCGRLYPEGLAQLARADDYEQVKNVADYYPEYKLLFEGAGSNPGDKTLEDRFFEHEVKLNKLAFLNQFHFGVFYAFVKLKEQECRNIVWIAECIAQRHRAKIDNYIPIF
UniProt Q9H2C2: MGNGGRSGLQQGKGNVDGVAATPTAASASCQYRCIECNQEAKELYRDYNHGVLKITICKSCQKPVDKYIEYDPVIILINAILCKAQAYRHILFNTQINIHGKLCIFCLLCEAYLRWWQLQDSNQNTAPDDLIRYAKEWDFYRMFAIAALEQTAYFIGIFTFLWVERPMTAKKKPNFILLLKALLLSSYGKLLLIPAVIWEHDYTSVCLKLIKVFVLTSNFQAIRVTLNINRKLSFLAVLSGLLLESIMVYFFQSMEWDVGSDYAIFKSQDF
UniProt P15848: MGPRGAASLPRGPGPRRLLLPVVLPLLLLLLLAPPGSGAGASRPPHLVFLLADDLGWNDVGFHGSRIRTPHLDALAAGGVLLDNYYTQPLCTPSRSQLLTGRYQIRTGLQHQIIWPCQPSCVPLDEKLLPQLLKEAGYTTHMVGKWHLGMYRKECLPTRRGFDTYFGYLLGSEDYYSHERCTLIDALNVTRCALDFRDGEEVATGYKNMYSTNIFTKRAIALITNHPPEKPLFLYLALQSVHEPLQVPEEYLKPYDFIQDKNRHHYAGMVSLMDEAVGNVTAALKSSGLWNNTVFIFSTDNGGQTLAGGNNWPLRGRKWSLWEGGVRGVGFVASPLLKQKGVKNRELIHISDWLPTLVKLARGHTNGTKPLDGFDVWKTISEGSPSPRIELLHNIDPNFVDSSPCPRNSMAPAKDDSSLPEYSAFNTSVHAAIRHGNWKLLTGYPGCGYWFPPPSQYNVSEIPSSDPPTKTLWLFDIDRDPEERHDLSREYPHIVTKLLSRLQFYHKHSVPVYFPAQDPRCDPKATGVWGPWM
UniProt Q9Y294, whole entry, looked up: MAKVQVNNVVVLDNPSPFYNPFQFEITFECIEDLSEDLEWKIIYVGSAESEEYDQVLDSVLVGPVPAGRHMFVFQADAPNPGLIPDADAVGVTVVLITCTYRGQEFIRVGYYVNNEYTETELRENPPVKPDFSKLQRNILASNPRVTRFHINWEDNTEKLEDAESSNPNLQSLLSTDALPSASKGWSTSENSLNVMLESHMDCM
UniProt Q8NB49: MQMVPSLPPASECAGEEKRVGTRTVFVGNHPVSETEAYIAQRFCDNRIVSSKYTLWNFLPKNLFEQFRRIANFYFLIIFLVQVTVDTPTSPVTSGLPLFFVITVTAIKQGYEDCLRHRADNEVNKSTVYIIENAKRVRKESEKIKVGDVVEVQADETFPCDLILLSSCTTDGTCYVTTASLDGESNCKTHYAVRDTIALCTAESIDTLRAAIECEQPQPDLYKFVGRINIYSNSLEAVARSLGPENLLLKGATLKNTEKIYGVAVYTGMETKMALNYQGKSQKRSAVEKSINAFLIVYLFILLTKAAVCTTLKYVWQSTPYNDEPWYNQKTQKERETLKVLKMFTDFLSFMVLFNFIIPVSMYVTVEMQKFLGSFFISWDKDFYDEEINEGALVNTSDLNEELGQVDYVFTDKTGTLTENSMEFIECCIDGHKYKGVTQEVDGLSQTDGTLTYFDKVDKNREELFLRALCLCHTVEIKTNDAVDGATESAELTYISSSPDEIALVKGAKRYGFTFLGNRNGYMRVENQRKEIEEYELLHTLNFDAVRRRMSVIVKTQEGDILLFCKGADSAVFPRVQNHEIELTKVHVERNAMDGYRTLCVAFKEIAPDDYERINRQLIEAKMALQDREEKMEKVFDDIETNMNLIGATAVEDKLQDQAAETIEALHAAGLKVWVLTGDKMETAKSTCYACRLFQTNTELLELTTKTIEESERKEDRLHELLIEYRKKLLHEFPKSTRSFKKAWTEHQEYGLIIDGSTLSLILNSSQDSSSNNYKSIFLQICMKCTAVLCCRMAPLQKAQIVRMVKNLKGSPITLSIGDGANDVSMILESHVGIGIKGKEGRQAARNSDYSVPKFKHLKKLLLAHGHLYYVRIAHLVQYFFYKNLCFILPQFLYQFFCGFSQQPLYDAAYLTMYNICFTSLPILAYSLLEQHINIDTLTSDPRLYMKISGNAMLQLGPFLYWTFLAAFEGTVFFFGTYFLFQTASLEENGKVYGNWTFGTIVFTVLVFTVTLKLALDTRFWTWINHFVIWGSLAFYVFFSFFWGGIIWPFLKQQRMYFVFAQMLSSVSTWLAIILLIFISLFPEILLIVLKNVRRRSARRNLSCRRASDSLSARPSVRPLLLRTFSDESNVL

The other results are listed elsewhere or left out.

Compound in one assay: CCCCN(Cc1ccc(C(=O)NO)cc1)C(=O)Nc1ccccc1 [Nexturastat A]
The assay can be described thus: log2 fold change, soluble protein after heating vs DMSO (PISA); higher = thermal stabilisation; K562 cells, 10 uM, 30 min; active = over 0.2 and 3.5 SD of the protein, either way, in both replicates (recomputed). The method in brief: (§1)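 Soluble protein was quantified by TMTpro 16plex LC-MS/MS after channel sums were equalised. It was obtained as the supernatant after 21,000xg for 90 min from pooled aliquots of K562 cells (2×10^6 cells/mL, 10 μM compound, 30 min) heated for 3 min across 48°C-58°C and extracted in PBS with 0.5% NP-40 at 4°C. Thermal stability values are relative to control samples and come from duplicates. They are given as log2 fold changes.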
For the target ATP7A isoform 3 (UniProt Q04656), the log2 fold change is inactive: 0.047.
Still for that read-out and setting: the same measure for ARPC1B (UniProt O15143): inactive: 0.027; for ASAP1 isoform 2 (UniProt Q9ULH1): inactive: -0.005; for ATG3 (UniProt Q9NT62): inactive: -0.067.
Turning to ARL6IP1 (UniProt Q15041), the log2 fold change is inactive: -0.033.
In the case of ATG2A isoform 3 (UniProt Q2TAZ0), the log2 fold change is inactive: -0.057.
Take ARRB2 isoform 4 (UniProt P32121): the log2 fold change was inactive: -0.054.
Consider ATP5MF (UniProt P56134), for which the log2 fold change is inactive: -0.021.
Regarding ASPM (UniProt Q8IZT6), the log2 fold change is inactive: -0.128.
As to ATP6V1A (UniProt P38606), the log2 fold change is inactive: -0.038.
In the case of ATP11B (UniProt Q9Y2G3), the log2 fold change is inactive: -0.094.
The same measure, in the same setting: as for ASL (UniProt P04424), the figure is inactive: -0.039; as for ATP6AP2 (UniProt O75787), inactive: -0.063; as for ASAH1 isoform 2 (UniProt Q13510), inactive: -0.014.
On the same count and under the same terms, the same measure for ATP5F1A (UniProt P25705): inactive: -0.085.
Turning to ARIH2 (UniProt O95376), the log2 fold change was inactive: -0.069.
With ARPC3 (UniProt O15145), the log2 fold change was inactive: -0.097.
Same read-out and setting: as for ATPAF2 (UniProt Q8N5M1), the figure is inactive: -0.156.
Still for that read-out and setting: the same measure for ATG2B (UniProt Q96BY7): inactive: 0.017.
Same read-out and setting: as for ARPC1A (UniProt Q92747), the figure is inactive: -0.052.
As to ATP5F1E (UniProt P56381), the log2 fold change was inactive: -0.047.
On the same count and under the same terms, the same measure for ATE1 isoform 2 (UniProt O95260): inactive: -0.016; for ASPH (UniProt Q12797): inactive: 0.165; for ATP2C1 isoform 7 (UniProt P98194): inactive: -0.063.
Regarding ATL3 (UniProt Q6DD88), the log2 fold change is inactive: -0.023.
Still for that read-out and setting: the same measure for ARPC5 (UniProt O15511): inactive: -0.065; for ARPC2 (UniProt O15144): inactive: -0.069.
Turning to ATP5MC2 isoform 2 (UniProt Q06055), the log2 fold change was inactive: 0.018.
Consider ARMC1 (UniProt Q9NVT9), for which the log2 fold change was inactive: -0.041.
Turning to ATF2 (UniProt P15336), the log2 fold change is inactive: -0.236.
As to ATP6V0D1 (UniProt P61421), the log2 fold change was inactive: 0.109.
On the same count and under the same terms, as for ASCC3 (UniProt Q8N3C0), the figure is inactive: 0.472; as for ARPC4 isoform 3 (UniProt P59998), inactive: -0.069; as for ARV1 (UniProt Q9H2C2), inactive: -0.026.
As to ARSB (UniProt P15848), the log2 fold change was inactive: -0.011.
Same read-out and setting: as for ASF1A (UniProt Q9Y294), the figure is inactive: 0.156; as for ATP11C (UniProt Q8NB49), inactive: 0.017; as for ATP2B4 (UniProt P23634), inactive: 0.038.

Compound in another assay: CCCS(=O)(=O)Nc1ccc(F)c(C(=O)c2c[nH]c3ncc(-c4ccc(Cl)cc4)cc23)c1F [vemurafenib]
The assay is described as above. An outline of the steps: as §1
Take ATP7A isoform 3 (UniProt Q04656): the log2 fold change was inactive: 0.004.
The same measure, in the same setting: as for ARPC1B (UniProt O15143), the figure is inactive: 0.146.
Take ASAP1 isoform 2 (UniProt Q9ULH1): the log2 fold change was inactive: 0.095.
For the target ATG3 (UniProt Q9NT62), the log2 fold change is inactive: -0.008.
Regarding ARL6IP1 (UniProt Q15041), the log2 fold change is inactive: -0.065.
With ATG2A isoform 3 (UniProt Q2TAZ0), the log2 fold change was inactive: -0.04.
Same read-out and setting: the same measure for ARRB2 isoform 4 (UniProt P32121): inactive: 0.035; for ATP5MF (UniProt P56134): inactive: 0.015; for ASPM (UniProt Q8IZT6): inactive: 0.005.
ATP6V1A (UniProt P38606): the log2 fold change was inactive: -0.003.
As for ATP11B (UniProt Q9Y2G3), the log2 fold change is inactive: -0.061.
With ASL (UniProt P04424), the log2 fold change was inactive: 0.005.
In the case of ATP6AP2 (UniProt O75787), the log2 fold change was inactive: 0.035.
Same read-out and setting: as for ASAH1 isoform 2 (UniProt Q13510), the figure is inactive: 0.056.
Same read-out and setting: the same measure for ATP5F1A (UniProt P25705): inactive: -0.009.
For the target ARIH2 (UniProt O95376), the log2 fold change was inactive: 0.034.
In the case of ARPC3 (UniProt O15145), the log2 fold change was inactive: 0.039.
ATPAF2 (UniProt Q8N5M1): the log2 fold change was inactive: -0.065.
For ATG2B (UniProt Q96BY7), the log2 fold change is inactive: -0.01.
The same measure, in the same setting: the same measure for ARPC1A (UniProt Q92747): inactive: 0.001; for ATP5F1E (UniProt P56381): inactive: -0.041.
Take ATE1 isoform 2 (UniProt O95260): the log2 fold change is inactive: 0.02.
Still for that read-out and setting: the same measure for ASPH (UniProt Q12797): inactive: -0.085; for ATP2C1 isoform 7 (UniProt P98194): inactive: 0.015; for ATL3 (UniProt Q6DD88): inactive: 0.004.
On to ARPC5 (UniProt O15511), for which the log2 fold change is inactive: 0.01.
Still for that read-out and setting: the same measure for ARPC2 (UniProt O15144): inactive: 0.001; for ATP5MC2 isoform 2 (UniProt Q06055): inactive: -0.055; for ARMC1 (UniProt Q9NVT9): inactive: 0.043.
With ATF2 (UniProt P15336), the log2 fold change is inactive: -0.013.
The same measure, in the same setting: as for ATP6V0D1 (UniProt P61421), the figure is inactive: -0.037; as for ASCC3 (UniProt Q8N3C0), inactive: -0.164.
On the same count and under the same terms, the same measure for ARPC4 isoform 3 (UniProt P59998): inactive: 0.036.
For the target ARV1 (UniProt Q9H2C2), the log2 fold change is inactive: 0.003.
On the same count and under the same terms, as for ARSB (UniProt P15848), the figure is inactive: -0.063; as for ASF1A (UniProt Q9Y294), inactive: 0.029; as for ATP11C (UniProt Q8NB49), inactive: -0.03.
The same measure, in the same setting: the same measure for ATP2B4 (UniProt P23634): inactive: -0.015.
